Test results from PMC11210491.
These are yes or no findings as the source states them, for the method shown. Binding seen in cells or lysates may run through a third protein. Some results given as binding are weak or reduced against the parent protein; the word gives no strength.

Sequences of proteins named here, by UniProt entry; tags and fusion partners are left off.
UniProt P37238: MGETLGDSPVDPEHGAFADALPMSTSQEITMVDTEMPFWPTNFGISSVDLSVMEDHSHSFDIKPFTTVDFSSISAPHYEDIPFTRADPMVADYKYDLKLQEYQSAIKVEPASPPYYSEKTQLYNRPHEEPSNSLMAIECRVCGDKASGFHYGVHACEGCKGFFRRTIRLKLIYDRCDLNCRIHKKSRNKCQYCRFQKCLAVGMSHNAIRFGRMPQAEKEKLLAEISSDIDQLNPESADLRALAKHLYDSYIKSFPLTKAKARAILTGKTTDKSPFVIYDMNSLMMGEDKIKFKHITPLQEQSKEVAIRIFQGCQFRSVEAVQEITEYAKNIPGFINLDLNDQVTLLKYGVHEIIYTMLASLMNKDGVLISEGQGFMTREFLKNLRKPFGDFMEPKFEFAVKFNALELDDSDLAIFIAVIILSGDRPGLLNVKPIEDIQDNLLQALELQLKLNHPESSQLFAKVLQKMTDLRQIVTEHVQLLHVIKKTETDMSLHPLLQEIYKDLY
UniProt Q9QXG4: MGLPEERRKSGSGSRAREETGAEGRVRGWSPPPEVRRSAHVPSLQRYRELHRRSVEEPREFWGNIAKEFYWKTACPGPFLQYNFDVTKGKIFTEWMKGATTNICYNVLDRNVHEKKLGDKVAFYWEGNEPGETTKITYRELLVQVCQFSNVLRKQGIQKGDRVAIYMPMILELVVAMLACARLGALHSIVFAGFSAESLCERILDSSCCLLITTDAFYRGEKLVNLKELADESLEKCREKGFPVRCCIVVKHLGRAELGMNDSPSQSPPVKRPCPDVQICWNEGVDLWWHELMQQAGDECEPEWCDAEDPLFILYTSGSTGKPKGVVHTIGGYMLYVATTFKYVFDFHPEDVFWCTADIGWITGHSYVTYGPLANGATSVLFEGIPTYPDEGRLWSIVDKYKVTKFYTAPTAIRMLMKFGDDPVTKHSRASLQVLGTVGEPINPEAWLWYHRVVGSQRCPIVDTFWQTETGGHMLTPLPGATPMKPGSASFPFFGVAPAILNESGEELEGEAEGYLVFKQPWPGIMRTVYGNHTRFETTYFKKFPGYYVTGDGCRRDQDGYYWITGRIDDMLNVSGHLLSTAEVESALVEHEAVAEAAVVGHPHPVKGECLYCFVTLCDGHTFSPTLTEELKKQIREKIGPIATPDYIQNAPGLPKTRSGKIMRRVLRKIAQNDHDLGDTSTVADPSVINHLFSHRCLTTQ

Target: PPARγ, endogenous in mouse hippocampus (mouse (endogenous in hippocampus)) (UniProt P37238)
Experiment: co-IP; whole-cell lysates from the mouse hippocampus, endogenous proteins, immunoblot

binding: binds
Substance: ACSS2, endogenous in mouse hippocampus (from UniProt Q9QXG4 1-701) (enzyme)
